Measured data: PubChem BioAssay AID1259254 (NCATS, 2017)
Test: 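Finding genes that stop cells copying their DNA twice in one cycle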 (primary screen). Cells: human HCT116 colorectal cancer cells. Reagent: single siRNA against human genes. Duration: 3 days. Detection: 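Imaged Hoechst DNA stain sorts each cell into a cycle phase by DNA amount; per plate, G2 fraction set to 0% for non-targeting and 100% for GMNN siRNA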. Scale: G2 robust z-score and G2 cells, % of GMNN control: higher = more G2 cells, more excess DNA replication. Active means: 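An siRNA counts as active if its G2 robust z-score lies at least 5 MADs above the screen median; here such calls match roughly 38% of GMNN control or more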.
This is an unselected part of about 59,000 deposited reagents. About 1,550 of them (2.6%) count as active. 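G2 share is only a proxy for re-replication; each gene was hit by three separate siRNAs, and active genes were retested.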 The numbers tell different reagents against one gene apart. Further read-outs or replicates are left out here. Not given: the amount of reagent.

no.	gene knocked down	siRNA no.	G2 robust z-score	G2 cells, % of GMNN control	Call
1	FAM66C	1	4.07	31.6	inactive
2	FAM66C	2	1.66	14.7	inactive
3	FAM66C	3	2.9	23.4	inactive
4	ATIC	1	0.0145	3.07	inactive
5	ATIC	2	-0.596	-1.23	inactive
6	ATIC	3	-0.192	1.61	inactive
7	KRTAP4-2	1	-0.538	-0.816	inactive
8	KRTAP4-2	2	0.951	9.66	inactive
9	KRTAP4-2	3	1.05	10.4	inactive
10	LARS1	1	-1.55	-7.91	inactive
11	LARS1	2	-0.297	0.881	inactive
12	LARS1	3	-1.27	-5.98	inactive
13	PLEKHG3	1	2.61	21.3	inactive
14	PLEKHG3	2	0.582	7.06	inactive
15	PLEKHG3	3	1.09	10.6	inactive
16	APC	1	2.98	23.9	inactive
17	APC	2	-0.5	-0.547	inactive
18	APC	3	-0.281	0.992	inactive
19	SRRM1	1	-0.0221	2.81	inactive
20	SRRM1	2	0.359	5.49	inactive
21	SRRM1	3	-1.09	-4.67	inactive
22	MRTO4	1	2.92	23.5	inactive
23	MRTO4	2	0.335	5.33	inactive
24	MRTO4	3	-0.848	-3	inactive
25	PIDD1	1	1.87	16.1	inactive
26	PIDD1	2	0.187	4.28	inactive
27	PIDD1	3	-0.00339	2.94	inactive
28	VPS53	1	-0.946	-3.69	inactive
29	VPS53	2	1.19	11.4	inactive
30	VPS53	3	0.628	7.39	inactive
31	LINC-PINT	1	0.476	6.32	inactive
32	LINC-PINT	2	1.15	11	inactive
33	LINC-PINT	3	-1.18	-5.36	inactive
34	LINC-PINT	4	-0.661	-1.68	inactive
35	LINC-PINT	5	3.29	26.1	inactive
36	LINC-PINT	6	-0.758	-2.37	inactive
37	PSMA7	1	3.35	26.5	inactive
38	PSMA7	2	1.44	13.1	inactive
39	PSMA7	3	2.07	17.6	inactive
40	TOMM70	1	-0.392	0.208	inactive
41	TOMM70	2	0.388	5.7	inactive
42	TOMM70	3	-1.01	-4.12	inactive

Not a retest: an excerpt of the list.
no.	gene knocked down	siRNA no.	G2 robust z-score	G2 cells, % of GMNN control	Call
22	MRTO4	1	2.92	23.5	inactive
23	MRTO4	2	0.335	5.33	inactive
24	MRTO4	3	-0.848	-3	inactive
25	PIDD1	1	1.87	16.1	inactive
26	PIDD1	2	0.187	4.28	inactive
27	PIDD1	3	-0.00339	2.94	inactive
28	VPS53	1	-0.946	-3.69	inactive

Next entries follow:
no.	gene knocked down	siRNA no.	G2 robust z-score	G2 cells, % of GMNN control	Call
43	PI4K2A	1	8.44	62.3	active
44	PI4K2A	2	1.56	13.9	inactive
45	PI4K2A	3	-1.19	-5.42	inactive
46	CBLN3	1	0.587	7.1	inactive
47	CBLN3	2	3.01	24.1	inactive
48	CBLN3	3	2.41	20	inactive
49	ACKR4	1	2.11	17.8	inactive
50	ACKR4	2	-0.0191	2.83	inactive
51	ACKR4	3	2.5	20.5	inactive
52	PLXNB3	1	2.05	17.4	inactive
53	PLXNB3	2	-0.755	-2.34	inactive
54	PLXNB3	3	0.917	9.42	inactive
55	IGFBP1	1	8.26	61.1	active
56	IGFBP1	2	-0.341	0.567	inactive
57	IGFBP1	3	0.666	7.65	inactive
58	EBF3	1	0.186	4.28	inactive
59	EBF3	2	0.315	5.18	inactive
60	EBF3	3	3.04	24.4	inactive
61	MZF1	1	-0.851	-3.02	inactive
62	MZF1	2	1.4	12.8	inactive
63	MZF1	3	0.429	5.98	inactive
64	ATXN7L2	1	0.507	6.53	inactive
65	ATXN7L2	2	-0.917	-3.48	inactive
66	ATXN7L2	3	0.011	3.04	inactive
67	CHGA	1	-0.262	1.12	inactive
68	CHGA	2	-0.184	1.67	inactive
69	CHGA	3	0.83	8.8	inactive
